Experimental data published in publication PMC9669019, “Molecular basis for integrin adhesion receptor binding to p21-activated kinase 4 (PAK4)” (Communications Biology, 2022).

Tested on: PAK4cat
Experiment: Isothermal titration calorimetry (Nano-ITC)
Format: binding, human

Substance: integrin β5 cytoplasmic tail: Recombinant His-tagged integrin β5 cytoplasmic tail, residues 743–799 (KLLVTIHDRREFAKFQSERSRARYEMASNPLYRKPISTHTVDFTFNKFNKSYNGTVD; left off: 6xHis, end not stated, kept)
- ΔS (ITC) (PBS pH 7.4, 25 °C, mean of runs): 73.25 ± 2.45 J/molK
- ΔH (ITC) (Supplementary Table 1, run 1): -1.84 kcal/mol
- ΔS (ITC) (Supplementary Table 1, run 1): 75.7 J/molK
- ΔH (ITC) (Supplementary Table 1, run 2): -2.2 kcal/mol
- ΔS (ITC) (Supplementary Table 1, run 2): 70.8 J/molK
